Assay results published in paper PMC8500422.
No constants are given. Whether binding was seen depends on the method and setting. In cells and extracts the contact can be indirect. Some results given as binding are weak or reduced against the parent protein; the word gives no strength. Where a sequence is shown, tags or fusion partners need not be part of it.

Tests used:
[1] = molecular target: T1, EGFP-fused BROMI(157–1,298) (human) (UniProt Q96NH3); assay: co-IP; visible immunoprecipitation (VIP) assay: lysates of HEK293T cells coexpressing EGFP-fused and mChe-fused proteins (HMDEKN buffer: 10 mM HEPES pH 7.4, 5 mM MgSO4, 1 mM DTT, 0.5 mM EDTA, 25 mM KCl, 0.05% NP-40), precipitated with GST-tagged anti-GFP Nb on glutathione–Sepharose 4B beads, 1 h at 4°C; red fluorescence on the washed beads observed under a microscope
T1 sequence: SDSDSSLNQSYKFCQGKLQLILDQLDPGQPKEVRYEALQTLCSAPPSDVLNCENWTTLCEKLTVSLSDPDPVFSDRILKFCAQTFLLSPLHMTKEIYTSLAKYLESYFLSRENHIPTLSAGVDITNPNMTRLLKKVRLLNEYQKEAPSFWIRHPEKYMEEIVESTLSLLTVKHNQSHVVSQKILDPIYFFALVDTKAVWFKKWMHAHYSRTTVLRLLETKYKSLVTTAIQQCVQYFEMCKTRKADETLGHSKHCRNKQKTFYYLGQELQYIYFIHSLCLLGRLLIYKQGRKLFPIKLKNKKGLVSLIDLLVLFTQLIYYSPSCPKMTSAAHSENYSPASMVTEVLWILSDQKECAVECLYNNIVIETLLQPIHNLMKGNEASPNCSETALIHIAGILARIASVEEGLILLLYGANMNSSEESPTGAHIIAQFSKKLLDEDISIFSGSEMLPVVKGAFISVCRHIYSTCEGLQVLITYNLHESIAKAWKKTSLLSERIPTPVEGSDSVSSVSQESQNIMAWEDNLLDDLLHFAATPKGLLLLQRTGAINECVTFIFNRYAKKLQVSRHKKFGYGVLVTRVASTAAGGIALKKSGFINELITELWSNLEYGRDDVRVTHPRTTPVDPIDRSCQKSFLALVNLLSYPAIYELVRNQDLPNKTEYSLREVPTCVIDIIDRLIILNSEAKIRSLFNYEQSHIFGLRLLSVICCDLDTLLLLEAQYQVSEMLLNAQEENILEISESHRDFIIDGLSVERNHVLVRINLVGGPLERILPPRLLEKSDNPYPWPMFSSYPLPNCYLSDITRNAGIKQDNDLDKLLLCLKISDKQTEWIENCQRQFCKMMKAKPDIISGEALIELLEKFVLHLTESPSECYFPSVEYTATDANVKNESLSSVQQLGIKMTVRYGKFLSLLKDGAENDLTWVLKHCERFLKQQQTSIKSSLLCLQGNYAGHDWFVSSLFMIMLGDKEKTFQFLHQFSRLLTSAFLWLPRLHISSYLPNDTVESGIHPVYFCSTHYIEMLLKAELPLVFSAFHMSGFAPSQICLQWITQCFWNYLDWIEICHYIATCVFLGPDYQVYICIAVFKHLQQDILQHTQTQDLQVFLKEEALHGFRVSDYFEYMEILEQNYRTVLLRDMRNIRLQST

EGFP-fused BROMI (human) = molecular target: T2, EGFP-fused BROMI (human) (UniProt Q96NH3); assay: as above
T2 sequence: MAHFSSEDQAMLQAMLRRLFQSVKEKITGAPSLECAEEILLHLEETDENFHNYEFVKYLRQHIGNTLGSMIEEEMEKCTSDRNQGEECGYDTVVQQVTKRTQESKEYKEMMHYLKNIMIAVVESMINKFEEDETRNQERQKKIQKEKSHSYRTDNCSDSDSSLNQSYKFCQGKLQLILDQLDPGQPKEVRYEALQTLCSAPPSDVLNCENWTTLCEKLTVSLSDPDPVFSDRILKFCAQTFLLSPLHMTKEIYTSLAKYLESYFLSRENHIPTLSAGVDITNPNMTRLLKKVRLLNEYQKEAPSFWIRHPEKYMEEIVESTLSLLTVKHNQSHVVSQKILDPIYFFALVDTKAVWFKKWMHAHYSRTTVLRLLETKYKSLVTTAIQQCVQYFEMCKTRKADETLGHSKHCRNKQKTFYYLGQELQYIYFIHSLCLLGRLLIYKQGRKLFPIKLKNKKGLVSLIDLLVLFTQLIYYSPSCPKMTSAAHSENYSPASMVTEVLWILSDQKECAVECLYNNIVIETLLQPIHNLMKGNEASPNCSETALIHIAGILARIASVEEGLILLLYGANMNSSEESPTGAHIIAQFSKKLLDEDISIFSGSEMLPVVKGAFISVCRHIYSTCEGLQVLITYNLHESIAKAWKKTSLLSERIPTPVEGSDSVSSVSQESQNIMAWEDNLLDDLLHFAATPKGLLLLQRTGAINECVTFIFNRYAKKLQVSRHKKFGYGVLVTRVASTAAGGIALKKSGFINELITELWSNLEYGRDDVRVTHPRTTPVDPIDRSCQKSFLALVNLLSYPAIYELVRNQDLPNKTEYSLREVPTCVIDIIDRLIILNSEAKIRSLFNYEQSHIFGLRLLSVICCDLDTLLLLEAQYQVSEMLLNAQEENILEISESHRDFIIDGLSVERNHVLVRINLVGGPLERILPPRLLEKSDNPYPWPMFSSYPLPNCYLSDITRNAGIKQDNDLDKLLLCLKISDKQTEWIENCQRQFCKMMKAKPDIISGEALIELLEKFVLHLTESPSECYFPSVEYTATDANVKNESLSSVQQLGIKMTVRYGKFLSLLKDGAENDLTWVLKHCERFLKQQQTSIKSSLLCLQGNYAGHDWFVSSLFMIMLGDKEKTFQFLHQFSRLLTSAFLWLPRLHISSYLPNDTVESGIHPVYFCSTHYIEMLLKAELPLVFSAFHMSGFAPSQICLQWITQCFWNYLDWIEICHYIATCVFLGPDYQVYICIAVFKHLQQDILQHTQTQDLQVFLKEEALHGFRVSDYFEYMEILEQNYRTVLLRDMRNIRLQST

CCRK-mChe (from UniProt Q8IZL9-1 1-346)
binding [1]: binds
binding (EGFP-fused BROMI (human)): binds
